The values below come from PMC8692159.

Sequences of proteins named here, by UniProt entry; tags and fusion partners are left off.
UniProt Q9NXR7: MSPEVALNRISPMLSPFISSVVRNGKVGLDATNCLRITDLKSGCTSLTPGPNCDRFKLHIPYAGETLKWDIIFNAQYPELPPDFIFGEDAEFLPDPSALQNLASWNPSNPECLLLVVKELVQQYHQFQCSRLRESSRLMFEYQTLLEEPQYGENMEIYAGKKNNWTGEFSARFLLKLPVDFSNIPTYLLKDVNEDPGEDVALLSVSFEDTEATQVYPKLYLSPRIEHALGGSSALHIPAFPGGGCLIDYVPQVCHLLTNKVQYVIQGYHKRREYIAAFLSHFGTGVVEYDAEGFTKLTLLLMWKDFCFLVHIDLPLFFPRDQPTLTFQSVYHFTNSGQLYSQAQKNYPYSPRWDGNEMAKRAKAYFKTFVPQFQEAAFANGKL

Assay [1] addresses Flag-BABAM2 (UniProt Q9NXR7). Description: co-IP; MYC-PPDPF and Flag-BABAM2 plasmids transfected into HEK293T, 48 h; lysis in 50 mM Tris-HCl pH 8.0, 150 mM NaCl, 0.1% NP-40; beads coupled to anti-Flag or anti-MYC antibody, 4 h; western blot.
The target of assay [2] is endogenously expressed BABAM2 (human (endogenous in A549)) (UniProt Q9NXR7). Description: co-IP; endogenous proteins, A549 lysate; 0.2 ug anti-BABAM2 antibody overnight at 4 C, Protein A/G beads; western blot. For orientation: Immunoblotting shows a protein as a band on a membrane.

Results are given in words; binding and its absence hold for the method and conditions named. Binding seen in cells or lysates may run through a third protein. Some entries that bind do so weakly or less than the wild type. For some assays here: Sequences can lack the tags named with a protein.

B1: MYC-PPDPF (protein, UniProt Q9H3Y8 1-114)
chain: MAAIPSSGSLVATHDYYRRRLGSTSSNSSCSSTECPGEAIPHPPGLPKADPGHWWASFFFGKSTLPFMATVLESAEHSEPPQASSSMTACGLARDAPRKQPGGQSSTASAGPPS
B1: the binding result in assay [1] was “binds”.

B2: endogenously expressed PPDPF (protein, UniProt Q9H3Y8 1-114)
chain: MAAIPSSGSLVATHDYYRRRLGSTSSNSSCSSTECPGEAIPHPPGLPKADPGHWWASFFFGKSTLPFMATVLESAEHSEPPQASSSMTACGLARDAPRKQPGGQSSTASAGPPS
Take B2: in assay [2], the binding result is “binds”.
